These are yes or no findings as the source states them, for the method shown. Some entries that bind do so weakly or less than the wild type. Where a sequence is shown, tags or fusion partners need not be part of it.
Target: T1, GST-NCOA4 (UniProt Q5U4H9)
T1 sequence: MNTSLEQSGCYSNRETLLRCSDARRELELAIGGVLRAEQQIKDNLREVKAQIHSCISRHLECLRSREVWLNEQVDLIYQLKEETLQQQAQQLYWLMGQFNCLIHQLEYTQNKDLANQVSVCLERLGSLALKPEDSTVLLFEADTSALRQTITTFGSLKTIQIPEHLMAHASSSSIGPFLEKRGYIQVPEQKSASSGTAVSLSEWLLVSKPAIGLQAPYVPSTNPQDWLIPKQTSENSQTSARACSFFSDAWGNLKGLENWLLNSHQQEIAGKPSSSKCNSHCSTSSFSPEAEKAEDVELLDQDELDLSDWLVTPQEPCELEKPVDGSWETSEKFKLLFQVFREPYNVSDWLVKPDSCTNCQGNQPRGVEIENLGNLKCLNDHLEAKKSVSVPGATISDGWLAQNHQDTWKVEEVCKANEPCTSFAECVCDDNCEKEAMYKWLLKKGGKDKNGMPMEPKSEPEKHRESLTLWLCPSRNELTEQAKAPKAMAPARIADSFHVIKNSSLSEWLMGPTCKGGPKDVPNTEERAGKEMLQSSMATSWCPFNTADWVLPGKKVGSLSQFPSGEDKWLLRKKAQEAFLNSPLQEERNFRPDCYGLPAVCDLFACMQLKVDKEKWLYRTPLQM
Experiment: pull-down; purified GST-tagged bait and His-tagged prey with glutathione-sepharose beads; 50 mM Tris-HCl pH 7.5, 150 mM NaCl, 1 mM EDTA, 0.1% NP-40, 10% glycerol; 4 °C, 2 h; Western blot with anti-His and anti-GST; both purified

binding: binds
B1: His-FTMT (protein, UniProt Q9D5H4 50-237)
chain: ASVASSQDSTRPSRVRQNFHPDSEAAINRQINLELYASYVYLSMAYYFSRDDVALYNFSKYFLRQSLEEREHAEKLMKLQNQRGGRICLQDIKKPDKDDWECGLRAMECALLLEKNVNQSLLDLHTLASEKGDPHLCDFLETHYLHEQVKSIKELGDHVHNLVTMGAPAAGLAEYLFDKHTLGSESKH

From publication PMC12694305
